{"sequences": {"note": "Sequences of proteins named here, by UniProt entry; tags and fusion partners are left off. A change or cut given only in a name is not applied to a line headed by its entry.", "UniProt Q13641": "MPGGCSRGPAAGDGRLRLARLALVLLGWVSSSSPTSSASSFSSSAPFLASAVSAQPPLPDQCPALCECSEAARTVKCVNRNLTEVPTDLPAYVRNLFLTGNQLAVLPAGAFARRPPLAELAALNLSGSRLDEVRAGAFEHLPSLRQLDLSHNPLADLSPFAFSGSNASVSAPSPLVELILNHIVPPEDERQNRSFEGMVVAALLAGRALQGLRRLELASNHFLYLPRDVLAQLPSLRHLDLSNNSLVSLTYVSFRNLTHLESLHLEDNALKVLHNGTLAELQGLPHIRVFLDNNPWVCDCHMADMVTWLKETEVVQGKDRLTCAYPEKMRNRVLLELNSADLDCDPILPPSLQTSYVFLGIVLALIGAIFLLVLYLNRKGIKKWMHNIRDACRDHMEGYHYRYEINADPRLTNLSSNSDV"}, "source": "patent US20170319711A1", "key": {"[1]": {"molecular_target": "human 5T4 ectodomain fused to the human IgG1-Fc domain (human) (UniProt Q13641)", "assay": "SPR (BIAcore), immobilized 5T4-Fc"}, "[2]": {"molecular_target": "human 5T4 ectodomain fused to the human IgG1-Fc domain (human) (UniProt Q13641)", "assay": "ELISA with 5T4 ectodomain Fc and human/mouse chimeras"}}, "note": "No constants are given. Whether binding was seen depends on the method and setting. Some binding calls cover weakened binding; strength is not graded here."}
{"binder": "A3 (a mouse/human chimeric antibody) (antibody, human IgG1, kappa, V domains shown) VH: EVQLVESGGGLVQPKGSLKLSCAASGFTFNTYAMNWVRQAPGKGLEWVARIRSKSNNYATYYADSVKDRFTISRDDSQSMLYLQMNNLKTEDTAMYYCVRQWDYDVRAMNYWGQGTLVTVSS VL: DIVMTQSHIFMSTSVGDRVSITCKASQDVDTAVAWYQQKPGQSPKLLIYWASTRLTGVPDRFTGSGSGTDFTLTISNVQSEDLADYFCQQYSSYPYTFGQGTKLEIKR", "values": [{"measurement": "binding", "setting": "[1]", "result": "binds"}, {"measurement": "binding", "setting": "[2]", "result": "binds"}]}
